Reference: article PMC7862700
The list shows a part of the results, in another mix than the full data. For some assays here: At the low end of the ranking the order means little. This is one part of the list. For some assays here: The source does not settle which construct or isoform was used.

By UniProt entry, the sequences of proteins in these tests, tags left out. Where a name states a change or a piece, a line headed by the entry shows the natural chain unless it says otherwise.
UniProt P32519: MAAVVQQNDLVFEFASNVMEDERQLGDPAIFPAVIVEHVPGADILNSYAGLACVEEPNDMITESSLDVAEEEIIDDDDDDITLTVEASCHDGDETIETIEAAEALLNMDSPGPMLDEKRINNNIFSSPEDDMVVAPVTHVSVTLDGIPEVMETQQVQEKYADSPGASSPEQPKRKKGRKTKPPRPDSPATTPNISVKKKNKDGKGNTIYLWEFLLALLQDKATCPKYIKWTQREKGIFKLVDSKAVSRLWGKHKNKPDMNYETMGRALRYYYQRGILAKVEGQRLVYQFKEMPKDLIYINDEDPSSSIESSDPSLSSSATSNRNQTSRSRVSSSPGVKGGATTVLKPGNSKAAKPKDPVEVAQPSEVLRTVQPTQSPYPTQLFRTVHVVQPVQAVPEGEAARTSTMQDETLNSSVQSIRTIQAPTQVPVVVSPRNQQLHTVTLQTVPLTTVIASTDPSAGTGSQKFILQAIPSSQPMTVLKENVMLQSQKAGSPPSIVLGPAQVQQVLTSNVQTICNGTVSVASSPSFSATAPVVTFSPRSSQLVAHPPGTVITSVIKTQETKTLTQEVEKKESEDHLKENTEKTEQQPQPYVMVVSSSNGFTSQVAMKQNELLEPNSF

Assays:
Assay in all cases: DAPPL (digital affinity profiling via proximity ligation, sequencing)
Settings in all cases: 10 mM Tris-HCl pH 7.5, 50 mM NaCl, 1 mM DTT, 4% glycerol, room temperature, 30 min; GST-TFs on glutathione beads, 16-mer random dsDNA library, 0.1% …; high values mean tight binding; double strand, one strand shown; scale: fold enrichment (6-mer frequency, TF over GST control)
ELF1 = ELF1 (UniProt P32519)
ETV4 = molecular target: T1, ETV4 (UniProt P43268)
T1 sequence: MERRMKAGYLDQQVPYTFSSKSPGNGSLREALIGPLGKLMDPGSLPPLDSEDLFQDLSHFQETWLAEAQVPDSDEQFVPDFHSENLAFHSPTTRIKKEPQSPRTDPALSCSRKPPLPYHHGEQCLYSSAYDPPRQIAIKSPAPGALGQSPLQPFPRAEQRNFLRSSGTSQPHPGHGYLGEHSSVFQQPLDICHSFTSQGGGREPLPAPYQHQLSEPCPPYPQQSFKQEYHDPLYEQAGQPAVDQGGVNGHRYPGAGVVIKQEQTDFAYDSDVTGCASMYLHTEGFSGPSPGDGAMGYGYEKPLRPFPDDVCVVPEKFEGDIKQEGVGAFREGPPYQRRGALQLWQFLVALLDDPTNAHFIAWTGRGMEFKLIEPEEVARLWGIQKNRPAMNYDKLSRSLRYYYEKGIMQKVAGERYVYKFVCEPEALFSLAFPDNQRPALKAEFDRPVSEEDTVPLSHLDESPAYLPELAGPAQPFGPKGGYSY

ERF = molecular target: T2, ERF (UniProt P50548)
T2 sequence: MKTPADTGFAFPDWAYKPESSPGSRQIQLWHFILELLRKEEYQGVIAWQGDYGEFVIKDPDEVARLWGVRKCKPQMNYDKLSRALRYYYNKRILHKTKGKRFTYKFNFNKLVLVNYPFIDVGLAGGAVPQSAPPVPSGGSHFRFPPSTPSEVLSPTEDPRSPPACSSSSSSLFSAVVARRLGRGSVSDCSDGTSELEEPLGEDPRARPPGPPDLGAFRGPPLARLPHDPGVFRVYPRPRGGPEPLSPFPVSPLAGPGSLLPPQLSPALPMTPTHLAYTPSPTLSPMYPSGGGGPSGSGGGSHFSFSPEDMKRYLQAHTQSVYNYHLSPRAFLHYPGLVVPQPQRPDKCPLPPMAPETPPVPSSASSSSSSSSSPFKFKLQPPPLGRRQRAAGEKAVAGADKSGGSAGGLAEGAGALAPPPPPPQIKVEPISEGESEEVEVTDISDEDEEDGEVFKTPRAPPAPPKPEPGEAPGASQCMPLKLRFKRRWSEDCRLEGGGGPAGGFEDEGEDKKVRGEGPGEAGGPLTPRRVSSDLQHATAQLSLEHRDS

Row | Sequence | binding signal (ELF1) | binding signal (ETV4) | binding signal (ERF)
1 | AATTCC | 1.86 | 1.9 | 1.65
2 | ACCAAC |  | 1.19 | 1.24
3 | TCCCTA |  | 1.38 | 1.43
4 | TTCAAA | 1.34 | 1.26 | 1.26
5 | ATACTA | 1.21 | 1.07 | 1.09
6 | AACAGG | 1.08 | 1.09 | 1.16
7 | ATTCCC | 1.4 | 1.45 | 
8 | GGAAAC | 1.22 | 1.33 | 
9 | CCTGGA | 1.4 | 1.38 | 
10 | GTATGC | 1.2 | 1.15 | 1.05
11 | TTTACA |  | 1.24 | 1.28
12 | CTAAGT |  | 1.18 | 1.13
13 | CGTACT | 1.27 | 1.22 | 1.27
14 | ACTACT |  | 1.21 | 1.33
15 | CCGCGT | 1.1 | 1.15 | 1.08
16 | AGACCT | 1.05 | 1.12 | 0.996
17 | TAATGC |  | 1.13 | 1.07
18 | CTGCTA | 1.47 | 1.41 | 1.49
19 | TCGCAA | 1.19 | 1.14 | 1.27
20 | ATCCAA | 1.2 | 1.23 | 0.993
21 | ATCGAT | 1.15 | 1.08 | 1.13
22 | CTCTTC | 1.66 | 1.71 | 1.62

Row | Sequence | binding signal (ELF1) | binding signal (ETV4) | binding signal (ERF)
23 | ATCCCT | 1.31 | 1.38 | 
24 | ATTATG | 1.2 | 1.22 | 1.11
25 | ATATCG | 1.16 | 1.28 | 1.23
26 | AAAATT | 1.34 | 1.32 | 1.48
27 | TCTGTC |  | 1.18 | 1.31
28 | TTAACT | 1.27 | 1.25 | 1.23
29 | AGGTAT | 1.04 | 1.02 | 
30 | GCCTCC | 1.27 | 1.36 | 1.39
31 | GGAAGC | 1.39 | 1.68 | 
32 | GTTCCG | 1.78 | 1.87 | 
33 | TCAATA | 1.17 | 1.16 | 
34 | CCTGTT | 1.75 | 1.68 | 
35 | TAGCGG | 0.966 | 1.02 | 
36 | CAAAAT | 1.18 | 1.15 | 
37 | TTCCGT | 1.74 | 1.8 | 
38 | CTTGTT | 1.21 | 1.27 | 
39 | TTACAA | 1.15 | 1.13 | 
40 | AGCCCC | 1.05 | 1.11 | 
41 | AGCCCT | 1.07 | 1.15 | 
42 | TTCTCG | 1.36 | 1.47 | 
43 | AACAAT | 1.29 | 1.3 | 
44 | TAACCC | 1.28 | 1.32 | 

Row | Sequence | binding signal (ELF1) | binding signal (ETV4) | binding signal (ERF)
45 | CACGCT | 1.34 | 1.38 | 
46 | ATTATT | 1.13 | 1.18 | 
47 | TCCCCT | 1.74 | 1.73 | 
48 | CTGCAA | 1.36 | 1.39 | 
49 | TCTAAT | 1.14 | 1.18 | 
50 | CTTCTG | 1.34 | 1.56 | 
51 | ATCTAC | 1.34 | 1.32 | 
52 | CCCAAT | 1.29 | 1.25 | 
53 | CCTCTC | 1.43 | 1.41 | 
54 | CACTAA | 1.18 | 1.18 | 
55 | GATACT | 1.1 | 1.1 | 
56 | TTTGAA | 1.23 | 1.29 | 
57 | CACTGG | 1.17 | 1.06 | 
58 | ATTTGG | 1.36 | 1.37 | 
59 | TTAACG | 1.23 | 1.2 | 
60 | AAGCAG | 1.12 | 0.981 | 
61 | CGCCTC | 1.49 | 1.45 | 
62 | TCTTAC | 1.32 | 1.2 | 
63 | TAGCTA | 1.25 | 1.33 | 
64 | GATACG | 1.15 | 1.05 | 
65 | TCGCCT | 1.21 | 1.39 | 
66 | AAAACT | 1.25 | 1.2 | 

For convenience, some entries already given.
Row | Sequence | binding signal (ELF1) | binding signal (ETV4) | binding signal (ERF)
52 | CCCAAT | 1.29 | 1.25 | 
53 | CCTCTC | 1.43 | 1.41 | 
54 | CACTAA | 1.18 | 1.18 | 
55 | GATACT | 1.1 | 1.1 | 
56 | TTTGAA | 1.23 | 1.29 | 
57 | CACTGG | 1.17 | 1.06 | 

(listing goes on)

Row | Sequence | binding signal (ELF1) | binding signal (ETV4) | binding signal (ERF)
67 | CTAAGC | 1.15 | 1.02 | 
68 | AGAAGC | 1.08 | 1.17 | 
69 | ATGGTT | 1.39 | 1.42 | 
70 | ATACTG | 1.09 | 1.08 | 
71 | CTCTGG | 1.34 | 1.41 | 
72 | GTTTAA | 1.13 | 1.03 | 
73 | TATTAT | 1.25 | 1.23 | 
74 | TCTCAC | 1.39 | 1.37 | 
75 | TCCGGC | 2 | 2.44 | 
76 | ACTCTT | 1.25 | 1.28 | 
77 | AATTGC | 1.34 | 1.38 | 
78 | TGCACT | 1.42 | 1.57 | 
79 | GTAAAA | 1.13 | 1.16 | 
80 | ATGAGC | 1.24 | 1.3 | 
81 | TGGCTA | 1.22 | 1.22 | 
82 | TTTCTT | 1.38 | 1.32 | 
83 | ATCTAG | 1.1 | 1.08 | 
84 | CTCTTT | 1.53 | 1.55 | 
85 | CTAGGT | 1.2 | 1.06 | 
86 | TAATGA | 1.1 | 1.12 | 
87 | GTGCTC | 1.19 | 1.23 | 
88 | TTTAGG | 0.967 | 1.1 | 

Row | Sequence | binding signal (ELF1) | binding signal (ETV4) | binding signal (ERF)
89 | ACATTC | 1.37 | 1.35 | 
90 | ATGGTA | 1.36 | 1.29 | 
91 | ATAGCA | 1.14 | 1.07 | 
92 | AAGTTT | 1.37 | 1.4 | 
93 | ACCGTC | 1.19 | 1.2 | 
94 | AAGGTA | 1.13 | 1.1 | 
95 | CGATTC | 1.24 | 1.14 | 
96 | TGCTAT | 1.46 | 1.4 | 
97 | TCCTTT | 1.81 | 1.66 | 
98 | TTGCAC | 1.28 | 1.33 | 
99 | TACGTT | 1.29 | 1.27 | 
100 | CTAATC | 1.32 | 1.38 | 
101 | CCGTAA | 1.09 | 1.13 | 
102 | TTAACC | 1.31 | 1.21 | 
103 | GCCAAT | 1.04 | 1.09 | 
104 | AATTAG | 1.12 | 1.11 | 
105 | CTCCTC | 1.32 | 1.31 | 
106 | AATGGC | 1.39 | 1.48 | 
107 | CGGCTC | 1.27 | 1.27 | 
108 | TCCCTC | 1.51 | 1.66 | 
109 | AAGGAA | 1.25 | 1.16 | 
